Measurements reported in PubChem BioAssay AID1224830 (NIAID, 2016)
Here is a random part of about 18,000 reagents tested. About 2,900 of them (16%) count as active. 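Calls are made per well; low scores hint the gene aids the LPS response, high scores that it dampens it.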 Unmarked entries are inactive. Repeated entries: four replicate wells of each siRNA pool. No sequences are given here.

Test: 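Host factors that control LPS-induced TNF expression in human macrophages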 (primary screen)
Cell system: human THP-1 monocytic leukaemia cells, TNF dual-luciferase reporter clone, PMA-differentiated to macrophage-like cells
Reagent: siRNA pool against human genes, 50 nM
Duration: LPS for 4 h, given about 3 days after siRNA transfection
Challenge: bacterial LPS (TLR4 ligand), 10 ng/ml
Measurement: 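Ratio of firefly to renilla light, scaled to the plate median and expressed as a robust z-score per replicate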
Direction: TNF reporter robust z-score: higher = stronger TNF reporter response to LPS
Rule for the call: 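Each well counts as active if its z-score is over 2.8 or under -1.5; controls are left without a call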

FOXN3 (forkhead box N3)
- TNF reporter robust z-score: -0.13

FOXN3 (forkhead box N3)
- TNF reporter robust z-score: -0.16

FOXN3 (forkhead box N3)
- TNF reporter robust z-score: 0.26

FOXN3 (forkhead box N3)
- TNF reporter robust z-score: -0.11

RBMY1D (RNA binding motif protein Y-linked family 1 member D)
- TNF reporter robust z-score: 0.06

RBMY1D (RNA binding motif protein Y-linked family 1 member D)
- TNF reporter robust z-score: 0.77

RBMY1D (RNA binding motif protein Y-linked family 1 member D)
- TNF reporter robust z-score: 1.07

RBMY1D (RNA binding motif protein Y-linked family 1 member D)
- TNF reporter robust z-score: 2.22

HNRNPA0 (heterogeneous nuclear ribonucleoprotein A0)
- TNF reporter robust z-score: 0.29

HNRNPA0 (heterogeneous nuclear ribonucleoprotein A0)
- TNF reporter robust z-score: -0.16

HNRNPA0 (heterogeneous nuclear ribonucleoprotein A0)
- TNF reporter robust z-score: -1.12

HNRNPA0 (heterogeneous nuclear ribonucleoprotein A0)
- TNF reporter robust z-score: -0.47

ZHX1 (zinc fingers and homeoboxes 1)
- TNF reporter robust z-score: 1.52

ZHX1 (zinc fingers and homeoboxes 1)
- TNF reporter robust z-score: 0.11

ZHX1 (zinc fingers and homeoboxes 1)
- TNF reporter robust z-score: 1.95

ZHX1 (zinc fingers and homeoboxes 1)
- TNF reporter robust z-score: 0.3

CRYGN (crystallin gamma N)
- TNF reporter robust z-score: 0.2

CRYGN (crystallin gamma N)
- TNF reporter robust z-score: -0.89

CRYGN (crystallin gamma N)
- TNF reporter robust z-score: -0.62

CRYGN (crystallin gamma N)
- TNF reporter robust z-score: 0.31

Records above whose gene name starts with Z or z (4):
ZHX1 (zinc fingers and homeoboxes 1)
- TNF reporter robust z-score: 1.52

ZHX1 (zinc fingers and homeoboxes 1)
- TNF reporter robust z-score: 0.11

ZHX1 (zinc fingers and homeoboxes 1)
- TNF reporter robust z-score: 1.95

ZHX1 (zinc fingers and homeoboxes 1)
- TNF reporter robust z-score: 0.3

Additional records follow:
KRTAP1-5 (keratin associated protein 1-5)
- TNF reporter robust z-score: -1.2

KRTAP1-5 (keratin associated protein 1-5)
- TNF reporter robust z-score: -0.99

KRTAP1-5 (keratin associated protein 1-5)
- TNF reporter robust z-score: -0.97

KRTAP1-5 (keratin associated protein 1-5)
- TNF reporter robust z-score: -0.94

CNGA3 (cyclic nucleotide gated channel subunit alpha 3)
- TNF reporter robust z-score: 1.54

CNGA3 (cyclic nucleotide gated channel subunit alpha 3)
- TNF reporter robust z-score: 1.36

CNGA3 (cyclic nucleotide gated channel subunit alpha 3)
- TNF reporter robust z-score: 0.67

CNGA3 (cyclic nucleotide gated channel subunit alpha 3)
- TNF reporter robust z-score: 1.02

CHCT1 (CHD1 helical C-terminal domain containing 1)
- TNF reporter robust z-score: -1.15

CHCT1 (CHD1 helical C-terminal domain containing 1)
- TNF reporter robust z-score: -1.04

CHCT1 (CHD1 helical C-terminal domain containing 1)
- TNF reporter robust z-score: -0.6

CHCT1 (CHD1 helical C-terminal domain containing 1)
- TNF reporter robust z-score: -1.2
